Measured values published in PubChem BioAssay AID260 (DTP/NCI, 2004).
The list does not hold the whole screen: it covers a few groups of compounds. Other doses and runs of a compound may be missing. T/C gives the treated animals as a percentage of the vehicle group. For survival time, the PubChem record calls one and a half times the control and up active, and a quarter to a half above the control has no call in these data; cut-offs in other NCI protocols can differ. Some T/C values are marked as having no survivor count here; that says nothing about deaths at the dose. Schedules are NCI's codes, taken here to give the interval after Q, in days (D) or hours (H), and the number of doses after X.

System: CD2F1 mice, intracerebral L1210 leukemia, survival T/C
Experiment: NCI In Vivo Anticancer Drug Screen. Data for tumor model L1210 Leukemia (intracerebral) in CD2F1 (CDF1) mice
Conditions: T/C endpoint: median survival time, schedule: Q01DX005 (ip), vehicle: saline with Tween-80, higher T/C = longer survival
Experimental: The antitumor activity of compounds was measured in mice bearing transplantable tumors. Survival or tumor size were measured and the results are expressed as the measurement made in the treated group (T) divided by the measurement made in the vehicle treated control group (C). The tumor model used in this assay is L1210 Leukemia (intracerebral) in CD2F1 (CDF1) mice

`Cc1cc2nc(CN(CCCl)CCCl)[nH]c2cc1C` was tested. Which T/C (dose: 1.0 mg/kg/injection) did it give?
The T/C was 97 % of control [survivor count not shown].

And the T/C (dose: 2.0 mg/kg/injection)?
The T/C was 110 % of control [survivor count not shown].

And the T/C (dose: 4.0 mg/kg/injection)?
Its T/C is 110 % of control [survivor count not shown].

And the T/C (dose: 8.0 mg/kg/injection)?
The T/C was 117 % of control [survivor count not shown].

What about the T/C (dose: 16.0 mg/kg/injection) of the same compound?
Its T/C is 92 % of control [survivor count not shown].
